# According to the supplement of paper PMC8728848:
# The list shows a part of the results.
# B1: Latrophilin-3 (Homo sapiens), Q9HAR2 (protein)
# chain: MWPSQLLIFMMLLAPIIHAFSRAPIPMAVVRRELSCESYPIELRCPGTDVIMIESANYGRTDDKICDSDPAQMENIRCYLPDAYKIMSQRCNNRTQCAVVAGPDVFPDPCPGTYKYLEVQYECVPYKVEQKVFLCPGLLKGVYQSEHLFESDHQSGAWCKDPLQASDKIYYMPWTPYRTDTLTEYSSKDDFIAGRPTTTYKLPHRVDGTGFVVYDGALFFNKERTRNIVKFDLRTRIKSGEAIIANANYHDTSPYRWGGKSDIDLAVDENGLWVIYATEQNNGKIVISQLNPYTLRIEGTWDTAYDKRSASNAFMICGILYVVKSVYEDDDNEATGNKIDYIYNTDQSKDSLVDVPFPNSYQYIAAVDYNPRDNLLYVWNNYHVVKYSLDFGPLDSRSGQAHHGQVSYISPPIHLDSELERPSVKDISTTGPLGMGSTTTSTTLRTTTLSPGRSTTPSVSGRRNRSTSTPSPAVEVLDDMTTHLPSASSQIPALEESCEAVEAREIMWFKTRQGQIAKQPCPAGTIGVSTYLCLAPDGIWDPQGPDLSNCSSPWVNHITQKLKSGETAANIARELAEQTRNHLNAGDITYSVRAMDQLVGLLDVQLRNLTPGGKDSAARSLNKAMVETVNNLLQPQALNAWRDLTTSDQLRAATMLLHTVEESAFVLADNLLKTDIVRENTDNIKLEVARLSTEGNLEDLKFPENMGHGSTIQLSANTLKQNGRNGEIRVAFVLYNNLGPYLSTENASMKLGTEALSTNHSVIVNSPVITAAINKEFSNKVYLADPVVFTVKHIKQSEENFNPNCSFWSYSKRTMTGYWSTQGCRLLTTNKTHTTCSCNHLTNFAVLMAHVEVKHSDAVHDLLLDVITWVGILLSLVCLLICIFTFCFFRGLQSDRNTIHKNLCISLFVAELLFLIGINRTDQPIACAVFAALLHFFFLAAFTWMFLEGVQLYIMLVEVFESEHSRRKYFYLVGYGMPALIVAVSAAVDYRSYGTDKVCWLRLDTYFIWSFIGPATLIIMLNVIFLGIALYKMFHHTAILKPESGCLDNIKSWVIGAIALLCLLGLTWAFGLMYINESTVIMAYLFTIFNSLQGMFIFIFHCVLQKKVRKEYGKCLRTHCCSGKSTESSIGSGKTSGSRTPGRYSTGSQSRIRRMWNDTVRKQSESSFITGDINSSASLNREGLLNNARDTSVMDTLPLNGNHGNSYSIASGEYLSNCVQIIDRGYNHNETALEKKILKELTSNYIPSYLNNHERSSEQNRNLMNKLVNNLGSGREDDAIVLDDATSFNHEESLGLELIHEESDAPLLPPRVYSTENHQPHHYTRRRIPQDHSESFFPLLTNEHTEDLQSPHRDSLYTSMPTLAGVAATESVTTSTQTEPPPAKCGDAEDVYYKSMPNLGSRNHVHQLHTYYQLGRGSSDGFIVPPNKDGTPPEGSSKGPAHLVTSL
# Legend:
# Assay in all cases: glycan array binding signal (z-score within array); higher = stronger binding
# Details in all cases: glycan notation: IUPAC condensed, linker removed
# [1] = target: Fuc(a1-3)[Gal(b1-4)]GlcNAc(b1-4)Gal(b1-4)[Fuc(a1-3)]GlcNAc
# Summary of the method: (§1)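 Negative Z-scores can be read as non-binding. The Z-score is calculated within each array and then averaged across arrays of one protein sequence at different concentrations or buffers and across linkers. Arrays, 3228 in all, were curated from the Consortium for Functional Glycomics database and kept only where the protein sequence was available.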
# [2] = target: Fuc(a1-3)[Gal(b1-4)]GlcNAc(b1-4)Gal(b1-4)[Fuc(a1-3)]GlcNAc(b1-4)Gal(b1-4)[Fuc(a1-3)]GlcNAc
# Summary of the method: as §1
# [3] = target: Fuc(a1-3)[Gal(b1-4)]GlcNAc(b1-6)GalNAc
# Summary of the method: as §1
# [4] = target: Fuc(a1-3)[Gal(b1-4)]GlcNAc(b1-6)[Gal(b1-3)GlcNAc(b1-3)]Gal(b1-4)Glc
# Summary of the method: as §1
# [5] = target: Fuc(a1-3)[Gal(b1-4)]GlcNAc(b1-6)[Neu5Ac(a2-3)Gal(b1-3)]GalNAc
# Summary of the method: as §1
# [6] = target: Fuc(a1-3)[Gal(b1-4)]GlcNAc6S
# Summary of the method: as §1
# [7] = target: Fuc(a1-3)[Gal3S(b1-4)]GlcNAc
# Summary of the method: as §1
# [8] = target: Fuc(a1-3)[Gal3S(b1-4)]GlcNAc6S
# Summary of the method: as §1
# [9] = target: Fuc(a1-3)[GalNAc(b1-4)]GlcNAc
# Summary of the method: as §1
# [10] = target: Fuc(a1-3)[GalNAc(b1-4)]GlcNAc6S
# Summary of the method: as §1
# [11] = target: Fuc(a1-3)[GalNAc3S(b1-4)]GlcNAc
# Summary of the method: as §1
# [12] = target: Fuc(a1-4)GlcNAc
# Summary of the method: as §1
# [13] = target: Fuc(b1-3)GlcNAc
# Summary of the method: as §1
# [14] = target: Gal(a1-2)Gal
# Summary of the method: as §1
# [15] = target: Gal(a1-3)Gal
# Summary of the method: as §1
# [16] = target: Gal(a1-3)Gal(b1-3)GlcNAc
# Summary of the method: as §1
# [17] = target: Gal(a1-3)Gal(b1-3)GlcNAc(b1-2)Man(a1-3)[Gal(a1-3)Gal(b1-3)GlcNAc(b1-2)Man(a1-6)]Man(b1-4)GlcNAc(b1-4)GlcNAc
# Summary of the method: as §1
# [18] = target: Gal(a1-3)Gal(b1-3)GlcNAc(b1-3)GalNAc
# Summary of the method: as §1
# [19] = target: Gal(a1-3)Gal(b1-3)GlcNAc(b1-6)GalNAc
# Summary of the method: as §1
# [20] = target: Gal(a1-3)Gal(b1-3)[Fuc(a1-4)]GlcNAc(b1-2)Man(a1-3)[Gal(a1-3)Gal(b1-3)[Fuc(a1-4)]GlcNAc(b1-2)Man(a1-6)]Man(b1-4)GlcNAc(b1-4)GlcNAc
# Summary of the method: as §1
# [21] = target: Gal(a1-3)Gal(b1-4)Glc
# Summary of the method: as §1
# [22] = target: Gal(a1-3)Gal(b1-4)GlcNAc
# Summary of the method: as §1
# [23] = target: Gal(a1-3)Gal(b1-4)GlcNAc(b1-3)GalNAc
# Summary of the method: as §1
# [24] = target: Gal(a1-3)Gal(b1-4)GlcNAc(b1-6)GalNAc
# Summary of the method: as §1
# [25] = target: Gal(a1-3)Gal(b1-4)[Fuc(a1-3)]GlcNAc
# Summary of the method: as §1
# [26] = target: Gal(a1-3)Gal(b1-4)[Fuc(a1-3)]GlcNAc(b1-2)Man(a1-3)[Gal(a1-3)Gal(b1-4)[Fuc(a1-3)]GlcNAc(b1-2)Man(a1-6)]Man(b1-4)GlcNAc(b1-4)GlcNAc
# Summary of the method: as §1
# [27] = target: Gal(a1-3)GalNAc
# Summary of the method: as §1
# [28] = target: Gal(a1-3)[Gal(a1-4)]Gal(b1-4)GlcNAc
# Summary of the method: as §1
# [29] = target: Gal(a1-4)Gal(b1-3)GlcNAc(b1-2)Man(a1-3)[Gal(a1-4)Gal(b1-3)GlcNAc(b1-2)Man(a1-6)]Man(b1-4)GlcNAc(b1-4)GlcNAc
# Summary of the method: as §1
# [30] = target: Gal(a1-4)Gal(b1-4)Glc
# Summary of the method: as §1
# [31] = target: Gal(a1-4)Gal(b1-4)GlcNAc
# Summary of the method: as §1
# [32] = target: Gal(a1-4)Gal(b1-4)GlcNAc(b1-2)Man(a1-3)[Gal(a1-4)Gal(b1-4)GlcNAc(b1-2)Man(a1-6)]Man(b1-4)GlcNAc(b1-4)GlcNAc
# Summary of the method: as §1
# [33] = target: Gal(a1-4)Gal(b1-4)GlcNAc(b1-3)Gal(b1-4)Glc
# Summary of the method: as §1
# [34] = target: Gal(a1-4)GlcNAc
# Summary of the method: as §1
# [35] = target: Gal(a1-6)Glc
# Summary of the method: as §1
# [36] = target: Gal(b1-2)Gal
# Summary of the method: as §1
# [37] = target: Gal(b1-3)Gal
# Summary of the method: as §1
# [38] = target: Gal(b1-3)Gal(b1-4)GlcNAc
# Summary of the method: as §1
# [39] = target: Gal(b1-3)Gal(b1-4)GlcNAc(b1-2)Man(a1-3)[Gal(b1-3)Gal(b1-4)GlcNAc(b1-2)Man(a1-6)]Man(b1-4)GlcNAc(b1-4)GlcNAc
# Summary of the method: as §1
# [40] = target: Gal(b1-3)GalNAc
# Summary of the method: as §1
# [41] = target: Gal(b1-3)GalNAc(a1-3)[Fuc(a1-2)]Gal(b1-4)Glc
# Summary of the method: as §1
# [42] = target: Gal(b1-3)GalNAc(a1-3)[Fuc(a1-2)]Gal(b1-4)GlcNAc
# Summary of the method: as §1
# [43] = target: Gal(b1-3)GalNAc(b1-3)Gal(a1-4)Gal(b1-4)Glc
# Summary of the method: as §1
# [44] = target: Gal(b1-3)GalNAc(b1-4)Gal(b1-4)Glc
# Summary of the method: as §1
# [45] = target: Gal(b1-3)GalNAc(b1-4)[Neu5Ac(a2-3)]Gal(b1-4)Glc
# Summary of the method: as §1
binder,measurement,setting,value
B1,glycan array binding signal (z-score),[1],0.632
same,glycan array binding signal (z-score),[2],1.42
same,glycan array binding signal (z-score),[3],-0.197
same,glycan array binding signal (z-score),[4],0.641
same,glycan array binding signal (z-score),[5],-0.297
same,glycan array binding signal (z-score),[6],-0.64
same,glycan array binding signal (z-score),[7],0.232
same,glycan array binding signal (z-score),[8],-0.597
same,glycan array binding signal (z-score),[9],-0.011
same,glycan array binding signal (z-score),[10],0.053
same,glycan array binding signal (z-score),[11],1.2
same,glycan array binding signal (z-score),[12],-0.164
same,glycan array binding signal (z-score),[13],0.042
same,glycan array binding signal (z-score),[14],2.83
same,glycan array binding signal (z-score),[15],-0.586
same,glycan array binding signal (z-score),[16],0.121
same,glycan array binding signal (z-score),[17],1.53
same,glycan array binding signal (z-score),[18],-1.02
same,glycan array binding signal (z-score),[19],-0.37
same,glycan array binding signal (z-score),[20],-1.37
same,glycan array binding signal (z-score),[21],-0.797
same,glycan array binding signal (z-score),[22],-0.823
same,glycan array binding signal (z-score),[23],-1.06
same,glycan array binding signal (z-score),[24],1.24
same,glycan array binding signal (z-score),[25],-0.174
same,glycan array binding signal (z-score),[26],1.87
same,glycan array binding signal (z-score),[27],0.238
same,glycan array binding signal (z-score),[28],0.937
same,glycan array binding signal (z-score),[29],-0.388
same,glycan array binding signal (z-score),[30],0.026
same,glycan array binding signal (z-score),[31],-1.08
same,glycan array binding signal (z-score),[32],-0.437
same,glycan array binding signal (z-score),[33],-1.03
same,glycan array binding signal (z-score),[34],1.45
same,glycan array binding signal (z-score),[35],0.098
same,glycan array binding signal (z-score),[36],1.21
same,glycan array binding signal (z-score),[37],-0.342
same,glycan array binding signal (z-score),[38],-0.126
same,glycan array binding signal (z-score),[39],0.161
same,glycan array binding signal (z-score),[40],-0.726
same,glycan array binding signal (z-score),[41],-0.197
same,glycan array binding signal (z-score),[42],-0.374
same,glycan array binding signal (z-score),[43],-1.11
same,glycan array binding signal (z-score),[44],0.382
same,glycan array binding signal (z-score),[45],-0.423

# Quoted at random: 2 entries already listed.
binder,measurement,setting,value
B1,glycan array binding signal (z-score),[18],-1.02
same,glycan array binding signal (z-score),[28],0.937
